No constants are given. Whether binding was seen depends on the method and setting. Some entries that bind do so weakly or less than the wild type.
Legend:
[1] = target: T1, human protooncogene HCCR-1 protein product (human) (UniProt Q6P1Q0); test: yeast two-hybrid (Example 1)
T1 sequence (looked up): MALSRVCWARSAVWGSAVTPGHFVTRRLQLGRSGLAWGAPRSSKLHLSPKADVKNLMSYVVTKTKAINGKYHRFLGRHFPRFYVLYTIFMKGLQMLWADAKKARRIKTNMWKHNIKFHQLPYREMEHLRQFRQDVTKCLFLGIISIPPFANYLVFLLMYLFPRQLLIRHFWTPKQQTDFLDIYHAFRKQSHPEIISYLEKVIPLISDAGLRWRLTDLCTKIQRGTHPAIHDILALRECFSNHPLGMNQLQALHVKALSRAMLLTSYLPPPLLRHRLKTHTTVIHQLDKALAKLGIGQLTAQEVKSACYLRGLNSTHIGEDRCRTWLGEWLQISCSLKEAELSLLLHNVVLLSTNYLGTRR

[2] = target: T1, human protooncogene HCCR-1 protein product (human); test: yeast two-hybrid (LexA bait HCCR-1, human fetal brain AD fusion library)

B1: KG-19 protein (protein, not shown: large carriers)
chain: MFVETLWKVWTELLDVLGLDVSNLSQYFSPASVSSSPARALLLVGVVLLAYWFLSLTLGFTFSVLHVVFGRFFWIVRVVLFSMSCVYILHKYEGEPENAVLPLCFVVAVYFMTGPMGFYWRSSPSGPSNPSNPSVEEKLEHLEKQVRLLNIRLNRVLESLDRSKDK
B1 was tested, and the binding [1] was “binds” and the binding [2] was “binds”.
